From the supplement of paper PMC5949888
Most values lie at the floor of the assay. Slopes are relative: functional sequences can read slightly below zero.

These substances were tested on Saccharomyces cerevisiae PS128 hsf1 delta, HSF1(1-493) fusion (assay: growth estimate (transactivation domain function in HSF1 fusion, heat-shock survival) (a.u. (slope of normalised read count over time)); higher = stronger growth at 37°C, i.e. more transactivation activity). Conditions: library: random library.
With AFNFPRRGLALNLLLVSPTR the growth estimate was < -0.25. With AEWCGRRD the growth estimate was < -0.25. In the case of SIY, the growth estimate was < -0.25. RFSHSHMLL showed a growth estimate of -0.243. For TLIAG, the growth estimate was < -0.25. For ALSN, the growth estimate was < -0.25. With TLWEADTSGGDVGP the growth estimate was < -0.25. IGEM was tested, and the growth estimate was < -0.25. For SLGKGLARGGYTCFTRLIVG, the growth estimate was < -0.25. For GSCGSTTNCECALKSCCTEV, the growth estimate was < -0.25. CLERWIRGRKFAWMQCLETR was tested, and the growth estimate was < -0.25. In the case of VYVPERASPPDNRGLFLGCY, the growth estimate was < -0.25. With RLRGKNFLSEARVSDIPSET the growth estimate was < -0.25. NSSVPPVDDNSQPSIATPGP was tested, and the growth estimate was < -0.25. Substance SAYRWIIRMGYRRQ has a growth estimate of -0.231. In the case of VETVGTTDLTYRALVKRRLW, the growth estimate was < -0.25. SDRSMKALQS was tested, and the growth estimate was < -0.25. With GVEDGAAPRFPPRRSTSSNS the growth estimate was < -0.25. With RGTQIGHAGRDWLSPPWSAG the growth estimate was < -0.25. SVILRPEHSIVLDVVHGLLH was tested, and the growth estimate was < -0.25. For QVQFVRNGLLGPSGSYRPAD, the growth estimate was < -0.25. CALRTRLASRCTWVCDCVGE was tested, and the growth estimate was < -0.25. For FCHRRGGKIIPRELWESGNV, the growth estimate was < -0.25. With PRRTRRW the growth estimate was < -0.25. With GVKTLGFVPISSFVFRGRLA the growth estimate was < -0.25. LAMVQPTWNLLRLS was tested, and the growth estimate was < -0.25. In the case of KHATECAHSLYWGYPVYPPI, the growth estimate was < -0.25. In the case of FREVRRFGVKTRAYVTHLAY, the growth estimate was < -0.25. With MTG the growth estimate was < -0.25. VAGADRNGVGLPNRPAHTRP was tested, and the growth estimate was < -0.25. FCIHYVRHFTYMLTPAYSQW was tested, and the growth estimate was < -0.25. For MWI, the growth estimate was < -0.25. With CLESAGDDTSPWAPYQAATV the growth estimate was < -0.25. With ELAGTSQILIRDSGLKLSAD the growth estimate was < -0.25. In the case of FSIVPPFIYQVARVSGYLLV, the growth estimate was < -0.25. AELEGLFEPGSHNFHVSERN was tested, and the growth estimate was < -0.25. For LDPVFTESRAGGERRAHKVC, the growth estimate was < -0.25. In the case of GKGTESLWVGVGYLISP, the growth estimate was < -0.25. In the case of RFI, the growth estimate was < -0.25. WWCA was tested, and the growth estimate was < -0.25. For AKLSEWRNNGALNLSLPMVS, the growth estimate was < -0.25. For DNELMTTRT, the growth estimate was < -0.25. With QIARLRVFRWLASPRERDHI the growth estimate was < -0.25. In the case of SVIDKSLTWW, the growth estimate was < -0.25. With RSHGPM the growth estimate was < -0.25. RIAPQRGNNLPGTARPTRV showed a growth estimate of -0.245. In the case of RPHR, the growth estimate was < -0.25. LFMDFVFCRAWAT was tested, and the growth estimate was < -0.25. YSIC was tested, and the growth estimate was < -0.25. For WYTVHERSPLD, the growth estimate was < -0.25. With LDRDGRDTKAYRTCCSTGSI the growth estimate was < -0.25. For RYVRGHGMDVNGESATHTP, the growth estimate was < -0.25. TETRHLTEMSRSNHLMRSP was tested, and the growth estimate was < -0.25. With HAGLLATIMPLVEPG the growth estimate was < -0.25. For WYHRVARRD, the growth estimate was < -0.25. With DAEEHLPFLSLMDGKLAIQ the growth estimate was < -0.25. In the case of WNPRRECLVWSKWCQSI, the growth estimate was < -0.25. With SKVFFLYRCYG the growth estimate was < -0.25. SQCKSMFACSA was tested, and the growth estimate was < -0.25. YREIILRNCGIKRLSATSET was tested, and the growth estimate was < -0.25. In the case of LAGVSEADRVAGSRMAILNY, the growth estimate was < -0.25. For HYWGLDVEDFD, the growth estimate was < -0.25. In the case of ERIRVGAGLGVRFQRRAWAA, the growth estimate was < -0.25. For CVAADTSRGKNVRSGAKSCS, the growth estimate was < -0.25. DQFGENYTAMPLVRGPRN was tested, and the growth estimate was < -0.25. For DWCLG, the growth estimate was < -0.25. In the case of NKALSTETAVAKIWTERRGN, the growth estimate was < -0.25. With VRVLATEVAAPPGRSVNQSP the growth estimate was < -0.25. In the case of REGSYTV, the growth estimate was < -0.25. For SVHRYGSGTTAVV, the growth estimate was < -0.25. In the case of AEGADYFGRR, the growth estimate was < -0.25. GSRVWEAGSDARYRDLRVMR was tested, and the growth estimate was < -0.25. Substance QLVPLT has a growth estimate of -0.25. Substance VCEGLWSMMDLQVLASHR has a growth estimate of -0.249. In the case of GTIADGLNRESGYPLVP, the growth estimate was < -0.25. With EPECCPETHTAFYVYVKSSG the growth estimate was < -0.25. LIIPNLDVIACQ was tested, and the growth estimate was < -0.25. For QTMTGVDVKLAGSAFRYHRN, the growth estimate was < -0.25. In the case of TRLYIWWVVCREYRALAAGY, the growth estimate was < -0.25. IWTCSGADIEVKGFSWIAAS was tested, and the growth estimate was < -0.25. GTRRETYSKDVGWLICGVAL was tested, and the growth estimate was < -0.25. In the case of PDLGGTDLHSPKSDCHNIAT, the growth estimate was < -0.25. In the case of GSVTARHMQLTRGNIVS, the growth estimate was < -0.25. With ATVPGPPPLLDLLRPRRVSG the growth estimate was < -0.25. In the case of AEFVASRHLNRRARAGA, the growth estimate was < -0.25. RKLSCIFFGMGYRLFAGVCP was tested, and the growth estimate was < -0.25. In the case of VQGSPVQYGWVGVSRLHEPD, the growth estimate was < -0.25. PYILWDLPLPRFRPMFARL was tested, and the growth estimate was < -0.25. In the case of NFFALPRYAARLRRSRWI, the growth estimate was < -0.25. In the case of KPRHE, the growth estimate was < -0.25. In the case of GGPDVCCMARDARHQTLQSH, the growth estimate was < -0.25. With DSLVLCTQCIELSH the growth estimate was < -0.25. For FGIRVVPASWGPSGWKFLGV, the growth estimate was < -0.25. IETVRCTPTEGLRNGGCST was tested, and the growth estimate was < -0.25. For AWLLRPRRG, the growth estimate was < -0.25. For CTPPILGSVACKVGSLQLRG, the growth estimate was < -0.25. In the case of NRPQKVGVEE, the growth estimate was < -0.25. With PGR the growth estimate was < -0.25. In the case of FAYWVKVYGNIGTVDPAEYL, the growth estimate was < -0.25. For LSGEGFRAQGFTILGPRRQC, the growth estimate was < -0.25. With GLYRH the growth estimate was < -0.25. In the case of HNSSFFRTGYLLAVQPRSET, the growth estimate was < -0.25. For LFDVWG, the growth estimate was < -0.25. For NPEF, the growth estimate was < -0.25. With KGEPNGRPLNPLNLQQ the growth estimate was < -0.25. For PHILLSLPYCRRCVGSPYNC, the growth estimate was < -0.25. In the case of DTFCRQTYARCSRRPYAIVK, the growth estimate was < -0.25. In the case of HGSGDRSKQRPRRAGSNSDS, the growth estimate was < -0.25. For VLVTFFVNWKRSSTNLSQRP, the growth estimate was < -0.25. With THDGHRVFVASIRRRRHAPH the growth estimate was < -0.25. With ELYKNPGMYSYFRVLLDTGL the growth estimate was < -0.25. KGPQRNNRGDLPQTNSGGPE was tested, and the growth estimate was < -0.25. DIIIDLC was tested, and the growth estimate was < -0.25. With QLG the growth estimate was < -0.25. With ETPRVSASVCQGQWDPSVGA the growth estimate was < -0.25. For LTHPGRRRTPIFTSKDTFEV, the growth estimate was < -0.25. For YKRERLQKVHTQRRASAAD, the growth estimate was < -0.25. In the case of RVIR, the growth estimate was < -0.25. In the case of WRHERAVRYRFQVWVPYLSR, the growth estimate was < -0.25. TKPVVLVM was tested, and the growth estimate was < -0.25. GSRACICITNRRDQLEGTHC was tested, and the growth estimate was < -0.25. RWVMCVGQR was tested, and the growth estimate was < -0.25. SYPG was tested, and the growth estimate was < -0.25. Substance VGAWYRPCRSRLLIVASAEP has a growth estimate of -0.205. For TDHTIVRDHQLSGRSGQG, the growth estimate was < -0.25. ERRPGENARHRAASSMTNMG was tested, and the growth estimate was < -0.25. With DDTAGL the growth estimate was < -0.25. AYYTSADEKTMLRSSSWGTS was tested, and the growth estimate was < -0.25. In the case of PKRRPGRIVHVKTDQSPATA, the growth estimate was < -0.25. GSDI was tested, and the growth estimate was < -0.25. In the case of TILVTVDDSHGVCGIWVTAG, the growth estimate was < -0.25. PRIIHRRIILFEPDALSILA was tested, and the growth estimate was < -0.25. VYKT was tested, and the growth estimate was < -0.25. For RKPSR, the growth estimate was < -0.25. With LSRARGDTR the growth estimate was < -0.25. YLFTFPSGSR showed a growth estimate of -0.21. With QCTRHSDRIANG the growth estimate was < -0.25. With KHAEEWESRGVSVRYS the growth estimate was < -0.25. For GVI, the growth estimate was < -0.25. For TWLRCV, the growth estimate was < -0.25. For RHSQGHSIFLDRTHILSFGR, the growth estimate was < -0.25. RFEAKR was tested, and the growth estimate was < -0.25. For YIRQVIPGAQIGSVVLTPLA, the growth estimate was < -0.25. With DQPSRGASEKWSPG the growth estimate was < -0.25.
